In publication PMC5065127:
Where a chain is given by its changes, count along the chain named. These are yes or no findings as the source states them, for the method shown. Binding seen in cells or lysates may run through a third protein. Some entries that bind do so weakly or less than the wild type. Where a sequence is shown, tags or fusion partners need not be part of it. Values belong to the binder of their own block, whether it stands above or below them.

Sequences of proteins named here, by UniProt entry; tags and fusion partners are left off.
UniProt Q8IXI2: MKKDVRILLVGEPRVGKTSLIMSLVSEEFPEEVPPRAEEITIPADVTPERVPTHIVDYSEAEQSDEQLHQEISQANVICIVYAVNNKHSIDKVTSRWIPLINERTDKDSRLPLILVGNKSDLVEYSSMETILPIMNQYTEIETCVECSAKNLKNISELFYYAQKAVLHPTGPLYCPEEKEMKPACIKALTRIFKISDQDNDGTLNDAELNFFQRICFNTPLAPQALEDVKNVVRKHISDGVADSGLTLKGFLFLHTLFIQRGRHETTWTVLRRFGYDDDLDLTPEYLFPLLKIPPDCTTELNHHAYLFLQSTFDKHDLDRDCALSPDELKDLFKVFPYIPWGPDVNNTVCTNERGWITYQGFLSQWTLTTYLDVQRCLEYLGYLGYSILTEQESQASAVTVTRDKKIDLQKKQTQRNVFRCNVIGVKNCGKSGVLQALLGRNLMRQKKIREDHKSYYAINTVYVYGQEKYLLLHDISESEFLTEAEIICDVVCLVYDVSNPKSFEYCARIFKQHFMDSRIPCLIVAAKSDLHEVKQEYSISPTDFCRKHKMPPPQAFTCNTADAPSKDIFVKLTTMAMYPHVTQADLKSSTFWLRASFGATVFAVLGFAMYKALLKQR

Legend:
Experiment in all cases: co-IP; HEK293T cells co-expressing a Flag-tagged and an HA-tagged protein; precipitated with anti-HA or anti-Flag antibody; control IgG as negative control
HA-tagged Miro1 = HA-tagged Miro1 (UniProt Q8IXI2)
[1] = target: T1, Flag-tagged Vimar (visceral mesodermal armadillo-repeats) (Drosophila) (UniProt A1Z6S7)
T1 sequence: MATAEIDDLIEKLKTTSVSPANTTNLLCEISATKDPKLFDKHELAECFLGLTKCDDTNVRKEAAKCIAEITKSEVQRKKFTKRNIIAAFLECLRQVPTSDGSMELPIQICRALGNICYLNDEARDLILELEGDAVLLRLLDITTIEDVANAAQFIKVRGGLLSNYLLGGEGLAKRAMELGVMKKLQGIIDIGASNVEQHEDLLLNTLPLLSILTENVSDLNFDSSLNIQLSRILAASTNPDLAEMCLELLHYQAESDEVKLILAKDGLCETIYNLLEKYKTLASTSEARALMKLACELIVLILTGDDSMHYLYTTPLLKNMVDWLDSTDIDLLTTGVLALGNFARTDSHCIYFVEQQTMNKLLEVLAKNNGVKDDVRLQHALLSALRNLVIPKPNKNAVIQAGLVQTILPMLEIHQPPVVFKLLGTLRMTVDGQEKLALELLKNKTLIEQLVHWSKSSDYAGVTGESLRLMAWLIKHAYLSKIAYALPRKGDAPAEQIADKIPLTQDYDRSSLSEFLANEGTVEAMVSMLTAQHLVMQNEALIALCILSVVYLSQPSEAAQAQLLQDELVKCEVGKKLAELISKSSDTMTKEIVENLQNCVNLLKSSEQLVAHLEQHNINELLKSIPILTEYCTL

[2] = target: T2, HA-tagged Miro (Drosophila) (Drosophila) (UniProt Q8IMX7)
T2 sequence: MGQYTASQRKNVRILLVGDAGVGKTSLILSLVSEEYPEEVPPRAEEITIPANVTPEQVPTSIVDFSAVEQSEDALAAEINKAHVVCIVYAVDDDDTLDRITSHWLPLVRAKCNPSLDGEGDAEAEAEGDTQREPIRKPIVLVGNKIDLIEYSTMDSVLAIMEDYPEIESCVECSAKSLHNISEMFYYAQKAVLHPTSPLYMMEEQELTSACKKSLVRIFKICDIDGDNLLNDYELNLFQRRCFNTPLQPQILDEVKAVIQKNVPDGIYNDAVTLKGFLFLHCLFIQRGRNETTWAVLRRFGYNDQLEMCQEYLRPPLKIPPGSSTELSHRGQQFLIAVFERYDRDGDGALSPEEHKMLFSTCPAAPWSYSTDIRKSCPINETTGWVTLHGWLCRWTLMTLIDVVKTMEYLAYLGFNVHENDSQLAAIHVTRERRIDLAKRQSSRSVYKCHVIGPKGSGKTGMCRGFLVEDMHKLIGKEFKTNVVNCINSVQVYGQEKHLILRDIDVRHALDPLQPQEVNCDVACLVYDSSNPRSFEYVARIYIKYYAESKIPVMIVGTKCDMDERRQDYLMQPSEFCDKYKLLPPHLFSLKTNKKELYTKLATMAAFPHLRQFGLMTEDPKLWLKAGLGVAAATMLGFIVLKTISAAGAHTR

[3] = target: T3, HA-tagged Miro20V (constitutively GTP-bound Miro mutant, A20V) (Drosophila) (UniProt Q8IMX7)
T3 sequence: T2 sequence with A20V

[4] = target: T4, HA-tagged Miro25N (constitutively GDP-bound Miro mutant, T25N) (Drosophila) (UniProt Q8IMX7)
T4 sequence: T2 sequence with T25N

binding (HA-tagged Miro1): binds
B1: Flag-tagged RAP1GDS1 (protein, UniProt P52306 1-607)
chain: MDNLSDTLKKLKITAVDKTEDSLEGCLDCLLQALAQNNTETSEKIQASGILQLFASLLTPQSSCKAKVANIIAEVAKNEFMRIPCVDAGLISPLVQLLNSKDQEVLLQTGRALGNICYDSHEGRSAVDQAGGAQIVIDHLRSLCSITDPANEKLLTVFCGMLMNYSNENDSLQAQLINMGVIPTLVKLLGIHCQNAALTEMCLVAFGNLAELESSKEQFASTNIAEELVKLFKKQIEHDKREMIFEVLAPLAENDAIKLQLVEAGLVECLLEIVQQKVDSDKEDDITELKTGSDLMVLLLLGDESMQKLFEGGKGSVFQRVLSWIPSNNHQLQLAGALAIANFARNDANCIHMVDNGIVEKLMDLLDRHVEDGNVTVQHAALSALRNLAIPVINKAKMLSAGVTEAVLKFLKSEMPPVQFKLLGTLRMLIDAQAEAAEQLGKNVKLVERLVEWCEAKDHAGVMGESNRLLSALIRHSKSKDVIKTIVQSGGIKHLVTMATSEHVIMQNEALVALALIAALELGTAEKDLESAKLVQILHRLLADERSAPEIKYNSMVLICALMGSECLHKEVQDLAFLDVVSKLRSHENKSVAQQASLTEQRLTVES

binding [1]: binds
B2: HA-tagged Miro (Drosophila) (protein, UniProt Q8IMX7 1-652)
chain: T2 sequence

binding [2]: binds
binding [3]: binds
binding [4]: binds
B3: Flag-tagged Vimar (visceral mesodermal armadillo-repeats) (protein, UniProt A1Z6S7 1-635)
chain: T1 sequence
